In publication PMC10003451, “Phosphorylated Peptide Derived from the Myosin Phosphatase Target Subunit Is a Novel Inhibitor of Protein Phosphatase-1” (International Journal of Molecular Sciences, 2023):
These are yes or no findings as the source states them, for the method shown. Binding can be weak; no strength is given.

Target: recombinant protein phosphatase-1 catalytic subunit delta (PP1cδ)
Assay: saturation transfer difference NMR; 1.3-1.5 mM peptide with 13.3-14.4 µM rPP1cα or 14-15 µM rPP1cδ in D2O, 10 mM imidazole pH 6.5, 150 mM NaCl; 293 K; irradiation of PP1c resonances at -1.3 ppm; qualitative; both purified

B1: P-Thr696-MYPT1^690−701 (phosphorylated peptide of the inhibitory region of myosin phosphatase target subunit-1) (peptide)
peptide: RQSRRSTQGVTL
modifications: phosphothreonine at 696 (pT696)
binding: binds
